Results reported in the supplement of paper PMC10849652.
The other results are listed elsewhere or left out.

Sequences of proteins named here, by UniProt entry; tags and fusion partners are left off. A change or cut given only in a name is not applied to a line headed by its entry.
UniProt Q13485: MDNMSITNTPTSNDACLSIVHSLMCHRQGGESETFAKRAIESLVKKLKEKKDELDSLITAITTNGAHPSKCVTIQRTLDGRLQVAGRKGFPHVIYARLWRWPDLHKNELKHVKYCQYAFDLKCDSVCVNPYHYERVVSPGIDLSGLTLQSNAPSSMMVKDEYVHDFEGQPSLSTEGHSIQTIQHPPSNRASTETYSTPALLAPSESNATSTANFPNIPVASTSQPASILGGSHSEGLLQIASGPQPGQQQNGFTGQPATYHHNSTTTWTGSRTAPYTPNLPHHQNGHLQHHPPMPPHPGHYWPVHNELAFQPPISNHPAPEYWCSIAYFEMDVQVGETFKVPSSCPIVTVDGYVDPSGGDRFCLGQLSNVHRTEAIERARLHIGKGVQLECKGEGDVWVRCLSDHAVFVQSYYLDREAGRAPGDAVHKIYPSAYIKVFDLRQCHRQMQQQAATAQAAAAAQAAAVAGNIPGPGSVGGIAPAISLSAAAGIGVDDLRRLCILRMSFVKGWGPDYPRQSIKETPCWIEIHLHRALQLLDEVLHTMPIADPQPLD
UniProt O76070, whole entry, looked up: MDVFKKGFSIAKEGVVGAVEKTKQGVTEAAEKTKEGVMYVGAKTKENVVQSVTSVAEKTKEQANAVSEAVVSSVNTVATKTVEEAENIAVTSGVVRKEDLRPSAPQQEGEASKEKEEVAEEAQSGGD
UniProt Q9H0W8: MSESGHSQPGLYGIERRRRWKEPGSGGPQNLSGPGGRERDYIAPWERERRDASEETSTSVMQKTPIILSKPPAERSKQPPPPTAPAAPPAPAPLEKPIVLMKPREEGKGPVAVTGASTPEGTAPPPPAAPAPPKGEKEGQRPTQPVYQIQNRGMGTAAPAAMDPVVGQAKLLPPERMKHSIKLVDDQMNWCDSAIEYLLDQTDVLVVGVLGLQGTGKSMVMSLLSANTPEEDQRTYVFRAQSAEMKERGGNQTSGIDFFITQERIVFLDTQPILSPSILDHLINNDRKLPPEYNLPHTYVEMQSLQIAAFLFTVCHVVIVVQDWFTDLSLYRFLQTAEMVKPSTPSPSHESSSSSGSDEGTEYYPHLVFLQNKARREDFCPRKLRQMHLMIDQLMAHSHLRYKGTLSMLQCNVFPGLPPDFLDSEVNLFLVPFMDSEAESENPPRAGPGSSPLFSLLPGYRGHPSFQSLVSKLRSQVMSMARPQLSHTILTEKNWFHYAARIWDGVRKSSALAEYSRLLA
UniProt Q15036: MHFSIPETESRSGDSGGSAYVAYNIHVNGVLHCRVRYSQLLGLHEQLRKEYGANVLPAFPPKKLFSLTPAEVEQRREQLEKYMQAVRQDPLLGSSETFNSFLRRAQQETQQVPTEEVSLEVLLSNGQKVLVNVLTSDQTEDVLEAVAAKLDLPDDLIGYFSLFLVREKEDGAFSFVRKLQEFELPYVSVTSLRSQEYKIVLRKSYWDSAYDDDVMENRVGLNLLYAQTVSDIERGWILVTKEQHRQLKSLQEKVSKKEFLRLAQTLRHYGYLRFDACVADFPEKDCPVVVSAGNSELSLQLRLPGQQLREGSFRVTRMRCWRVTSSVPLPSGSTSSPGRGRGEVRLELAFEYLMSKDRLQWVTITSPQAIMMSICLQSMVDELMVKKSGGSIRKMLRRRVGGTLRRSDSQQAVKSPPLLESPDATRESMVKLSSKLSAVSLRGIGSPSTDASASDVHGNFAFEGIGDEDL
UniProt P28370, whole entry, looked up: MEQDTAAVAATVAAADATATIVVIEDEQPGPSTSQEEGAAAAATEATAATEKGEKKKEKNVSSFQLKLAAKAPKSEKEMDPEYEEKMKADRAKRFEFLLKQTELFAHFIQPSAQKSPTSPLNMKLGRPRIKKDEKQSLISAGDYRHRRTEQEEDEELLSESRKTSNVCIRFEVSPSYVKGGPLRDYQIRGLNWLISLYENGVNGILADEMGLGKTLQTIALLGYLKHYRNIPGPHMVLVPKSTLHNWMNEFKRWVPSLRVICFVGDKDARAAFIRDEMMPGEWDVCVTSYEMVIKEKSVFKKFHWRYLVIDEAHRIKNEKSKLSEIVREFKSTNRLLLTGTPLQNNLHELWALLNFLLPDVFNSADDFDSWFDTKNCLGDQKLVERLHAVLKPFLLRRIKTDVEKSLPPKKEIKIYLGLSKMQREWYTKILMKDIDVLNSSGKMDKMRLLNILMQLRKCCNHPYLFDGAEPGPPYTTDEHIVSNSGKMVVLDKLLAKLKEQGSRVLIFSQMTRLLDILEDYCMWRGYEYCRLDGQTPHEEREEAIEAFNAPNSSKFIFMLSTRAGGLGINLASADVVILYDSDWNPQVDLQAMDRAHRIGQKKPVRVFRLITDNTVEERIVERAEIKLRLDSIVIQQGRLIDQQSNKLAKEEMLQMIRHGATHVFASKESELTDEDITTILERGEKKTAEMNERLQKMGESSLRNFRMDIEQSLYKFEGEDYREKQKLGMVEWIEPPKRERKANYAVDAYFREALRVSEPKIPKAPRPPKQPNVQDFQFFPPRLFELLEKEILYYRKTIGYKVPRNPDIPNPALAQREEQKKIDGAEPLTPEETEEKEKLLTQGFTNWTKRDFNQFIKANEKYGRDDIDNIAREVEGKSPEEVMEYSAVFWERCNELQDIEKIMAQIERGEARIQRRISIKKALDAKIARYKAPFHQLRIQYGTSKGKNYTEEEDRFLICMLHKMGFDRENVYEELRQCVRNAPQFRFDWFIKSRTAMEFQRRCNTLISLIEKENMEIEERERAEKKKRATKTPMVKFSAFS
UniProt Q14BN4: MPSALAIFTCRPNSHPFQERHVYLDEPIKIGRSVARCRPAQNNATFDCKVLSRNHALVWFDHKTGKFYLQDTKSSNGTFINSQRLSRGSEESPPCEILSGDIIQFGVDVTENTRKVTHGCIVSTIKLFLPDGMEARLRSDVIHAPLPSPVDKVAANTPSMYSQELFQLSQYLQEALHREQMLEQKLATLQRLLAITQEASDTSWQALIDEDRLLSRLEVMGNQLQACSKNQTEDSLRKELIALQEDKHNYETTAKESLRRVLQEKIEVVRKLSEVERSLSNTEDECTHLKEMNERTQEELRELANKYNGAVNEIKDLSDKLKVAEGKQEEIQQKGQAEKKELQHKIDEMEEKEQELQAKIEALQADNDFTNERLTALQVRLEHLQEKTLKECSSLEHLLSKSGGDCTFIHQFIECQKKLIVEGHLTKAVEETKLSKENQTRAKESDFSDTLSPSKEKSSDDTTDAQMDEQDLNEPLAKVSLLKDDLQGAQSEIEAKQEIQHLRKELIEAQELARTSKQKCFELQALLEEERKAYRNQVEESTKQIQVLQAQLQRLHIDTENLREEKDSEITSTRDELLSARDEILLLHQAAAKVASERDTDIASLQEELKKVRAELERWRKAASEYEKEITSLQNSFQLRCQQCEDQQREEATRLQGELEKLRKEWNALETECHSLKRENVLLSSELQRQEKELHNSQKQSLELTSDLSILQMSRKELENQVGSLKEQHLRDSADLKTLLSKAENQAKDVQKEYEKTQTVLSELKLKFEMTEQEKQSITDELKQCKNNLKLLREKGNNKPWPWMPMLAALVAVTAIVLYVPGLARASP
UniProt O60906: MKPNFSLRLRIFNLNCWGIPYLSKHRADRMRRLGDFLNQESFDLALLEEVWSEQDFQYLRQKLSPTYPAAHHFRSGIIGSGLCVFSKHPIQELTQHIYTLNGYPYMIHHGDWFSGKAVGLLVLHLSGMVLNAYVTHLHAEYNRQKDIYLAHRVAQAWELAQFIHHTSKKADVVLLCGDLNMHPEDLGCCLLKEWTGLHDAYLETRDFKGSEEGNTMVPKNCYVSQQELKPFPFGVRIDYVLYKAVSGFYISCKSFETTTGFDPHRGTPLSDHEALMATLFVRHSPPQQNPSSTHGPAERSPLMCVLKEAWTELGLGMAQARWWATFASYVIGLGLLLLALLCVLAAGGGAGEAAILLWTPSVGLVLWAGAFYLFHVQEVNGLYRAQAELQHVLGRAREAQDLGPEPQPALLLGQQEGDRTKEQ
UniProt Q3SY56: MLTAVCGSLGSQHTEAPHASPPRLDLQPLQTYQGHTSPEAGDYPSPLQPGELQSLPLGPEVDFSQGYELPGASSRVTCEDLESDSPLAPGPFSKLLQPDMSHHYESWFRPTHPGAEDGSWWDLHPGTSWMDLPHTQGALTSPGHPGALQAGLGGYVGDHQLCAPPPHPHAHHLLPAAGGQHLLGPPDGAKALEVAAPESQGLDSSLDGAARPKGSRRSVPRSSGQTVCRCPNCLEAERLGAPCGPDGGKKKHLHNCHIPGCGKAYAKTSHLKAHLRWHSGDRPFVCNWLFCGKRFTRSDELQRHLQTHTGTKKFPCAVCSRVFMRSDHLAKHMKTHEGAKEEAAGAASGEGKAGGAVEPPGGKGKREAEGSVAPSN
UniProt O60641: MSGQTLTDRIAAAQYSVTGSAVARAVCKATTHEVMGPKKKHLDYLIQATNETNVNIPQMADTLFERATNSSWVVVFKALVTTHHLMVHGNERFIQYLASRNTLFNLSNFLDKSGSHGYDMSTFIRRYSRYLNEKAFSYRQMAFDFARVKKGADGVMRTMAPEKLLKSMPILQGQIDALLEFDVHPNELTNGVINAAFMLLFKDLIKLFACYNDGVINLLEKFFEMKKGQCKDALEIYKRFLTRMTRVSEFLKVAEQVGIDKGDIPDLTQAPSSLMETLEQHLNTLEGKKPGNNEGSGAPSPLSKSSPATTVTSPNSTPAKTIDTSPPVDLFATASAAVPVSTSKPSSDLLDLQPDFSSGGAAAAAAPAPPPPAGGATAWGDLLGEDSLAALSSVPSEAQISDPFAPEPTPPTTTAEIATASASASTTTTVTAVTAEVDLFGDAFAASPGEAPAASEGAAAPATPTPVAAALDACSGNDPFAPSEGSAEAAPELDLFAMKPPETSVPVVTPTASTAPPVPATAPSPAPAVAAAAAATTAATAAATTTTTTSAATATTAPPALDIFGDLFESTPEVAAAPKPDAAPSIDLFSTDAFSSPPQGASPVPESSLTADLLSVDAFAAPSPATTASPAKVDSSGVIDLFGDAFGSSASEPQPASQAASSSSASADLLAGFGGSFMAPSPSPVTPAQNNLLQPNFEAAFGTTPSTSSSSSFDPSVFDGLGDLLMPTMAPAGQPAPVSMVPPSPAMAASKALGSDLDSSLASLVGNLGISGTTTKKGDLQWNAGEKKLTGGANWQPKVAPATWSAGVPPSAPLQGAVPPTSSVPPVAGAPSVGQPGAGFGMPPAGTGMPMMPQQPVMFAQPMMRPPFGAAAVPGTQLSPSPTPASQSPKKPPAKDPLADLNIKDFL
UniProt Q9NRG4: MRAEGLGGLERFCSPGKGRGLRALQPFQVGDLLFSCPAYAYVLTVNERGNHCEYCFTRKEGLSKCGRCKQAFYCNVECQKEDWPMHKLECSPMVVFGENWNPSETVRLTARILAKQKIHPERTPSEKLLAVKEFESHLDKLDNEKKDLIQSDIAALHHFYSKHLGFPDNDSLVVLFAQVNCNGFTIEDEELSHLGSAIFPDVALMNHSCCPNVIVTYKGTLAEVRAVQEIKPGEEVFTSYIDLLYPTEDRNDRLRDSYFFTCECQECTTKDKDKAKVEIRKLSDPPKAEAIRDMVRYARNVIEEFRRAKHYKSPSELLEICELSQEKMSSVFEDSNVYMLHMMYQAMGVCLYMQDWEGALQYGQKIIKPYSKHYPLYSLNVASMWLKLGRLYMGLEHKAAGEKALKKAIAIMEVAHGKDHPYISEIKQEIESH
UniProt P62306, whole entry, looked up: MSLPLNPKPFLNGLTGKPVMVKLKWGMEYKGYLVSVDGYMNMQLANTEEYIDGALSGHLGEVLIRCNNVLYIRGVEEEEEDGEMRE
UniProt Q6GMV2: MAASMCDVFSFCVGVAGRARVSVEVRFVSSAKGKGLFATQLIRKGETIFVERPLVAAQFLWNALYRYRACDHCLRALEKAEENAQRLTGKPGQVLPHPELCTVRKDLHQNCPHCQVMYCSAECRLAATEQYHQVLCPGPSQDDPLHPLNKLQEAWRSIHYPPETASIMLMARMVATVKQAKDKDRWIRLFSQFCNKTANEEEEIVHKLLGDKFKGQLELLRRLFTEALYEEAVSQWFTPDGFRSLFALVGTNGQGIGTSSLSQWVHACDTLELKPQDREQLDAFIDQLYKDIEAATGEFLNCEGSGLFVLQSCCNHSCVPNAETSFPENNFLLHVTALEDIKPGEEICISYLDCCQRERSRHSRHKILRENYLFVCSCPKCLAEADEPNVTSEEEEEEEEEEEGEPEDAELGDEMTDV
UniProt B2RUZ4: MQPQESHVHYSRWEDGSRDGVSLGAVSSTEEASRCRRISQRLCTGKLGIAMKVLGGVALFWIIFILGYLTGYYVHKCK
UniProt P00441, whole entry, looked up: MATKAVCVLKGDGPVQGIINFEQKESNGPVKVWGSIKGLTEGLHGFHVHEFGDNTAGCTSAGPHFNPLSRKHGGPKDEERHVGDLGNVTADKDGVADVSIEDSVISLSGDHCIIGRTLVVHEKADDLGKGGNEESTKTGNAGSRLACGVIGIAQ

What was measured:
Assay in all cases: log2 fold change, soluble protein after heating vs DMSO (PISA); higher = thermal stabilisation; K562 cells, 10 uM, 30 min; active = over 0.2 and 3.5 SD of the protein, either way, in both replicates (recomputed)
saracatinib = compound: CN1CCN(CCOc2cc(OC3CCOCC3)c3c(Nc4c(Cl)ccc5c4OCO5)ncnc3c2)CC1 [saracatinib]
Method in brief: (§1)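 K562 cells at 2×10^6 cells/mL were treated with 10 μM compound for 30 min. Aliquots were heated for 3 min across 48°C-58°C, pooled, and extracted in PBS with 0.5% NP-40 at 4°C; soluble protein was the supernatant after 21,000xg for 90 min. Soluble protein was quantified by TMTpro 16plex LC-MS/MS with channel sums equalised, and reported as log2 fold change in thermal stability against DMSO controls, with values from duplicates.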

sotrastaurin = compound: CN1CCN(c2nc(C3=C(c4c[nH]c5ccccc45)C(=O)NC3=O)c3ccccc3n2)CC1 [sotrastaurin]
Method in brief: as §1

alvocidib = compound: CN1CC[C@H](c2c(O)cc(O)c3c(=O)cc(-c4ccccc4Cl)oc23)[C@H](O)C1 [alvocidib]
Method in brief: as §1

Tubastatin A = compound: CN1CCc2c(c3ccccc3n2Cc2ccc(C(=O)NO)cc2)C1 [Tubastatin A]
Method in brief: as §1

[1] = compound: CNC(=O)C1=CC=CC=C1NC2=NC(=NC=C2Cl)NC3=C(C=C(C=C3)N4CCOCC4)OC
Method in brief: as §1

defactinib = compound: CNC(=O)c1ccc(Nc2ncc(C(F)(F)F)c(NCc3nccnc3N(C)S(C)(=O)=O)n2)cc1 [defactinib]
Method in brief: as §1

rucaparib = compound: CNCc1ccc(-c2[nH]c3cc(F)cc4c3c2CCNC4=O)cc1 [rucaparib]
Method in brief: as §1

[2] = compound: CNc1nc(-c2ccc3c(N)n[nH]c3c2)cc(N2C[C@@H](C(=O)NC3CCCCC3)CC[C@H]2C)n1
Method in brief: as §1

encorafenib = compound: COC(=O)N[C@@H](C)CNc1nccc(-c2cn(C(C)C)nc2-c2cc(Cl)cc(NS(C)(=O)=O)c2F)n1 [encorafenib]
Method in brief: as §1

[3] = compound: COC(=O)[C@H](CCSC)NC(=O)C1=C(C=C(C=C1)NC[C@H](CS)N)C2=CC=CC=C2
Method in brief: as §1

[4] = compound: COC1=CC=C(C=C1)CN2C=CC3=C2C=C(C=C3)C(=O)NO
Method in brief: as §1

filanesib = compound: CON(C)C(=O)N1N=C(c2cc(F)ccc2F)S[C@@]1(CCCN)c1ccccc1 [filanesib]
Method in brief: as §1

zotarolimus = compound: CO[C@H]1C[C@@H]2CC[C@@H](C)[C@@](O)(O2)C(=O)C(=O)N2CCCC[C@H]2C(=O)O[C@H]([C@H](C)C[C@@H]2CC[C@H](n3cnnn3)[C@H](OC)C2)CC(=O)[C@H](C)/C=C(\C)[C@@H](O)[C@@H](OC)C(=O)[C@H](C)C[C@H](C)/C=C/C=C/C=C/1C [zotarolimus]
Method in brief: as §1

idasanutlin = compound: COc1cc(C(=O)O)ccc1NC(=O)[C@@H]1N[C@@H](CC(C)(C)C)[C@](C#N)(c2ccc(Cl)cc2F)[C@H]1c1cccc(Cl)c1F [idasanutlin]
Method in brief: as §1

alisertib = compound: COc1cc(Nc2ncc3c(n2)-c2ccc(Cl)cc2C(c2c(F)cccc2OC)=NC3)ccc1C(=O)O [alisertib]
Method in brief: as §1

[5] = compound: COc1cc2nc(-c3cc(F)ccc3O)nc(N[C@@H]3CNC[C@H]3C(C)(C)O)c2cc1OC
Method in brief: as §1

gefitinib = compound: COc1cc2ncnc(Nc3ccc(F)c(Cl)c3)c2cc1OCCCN1CCOCC1 [gefitinib]
Method in brief: as §1

[6] = compound: COc1cccc2cc(-c3nc([C@H]4CC[C@H](C(=O)O)CC4)n4ncnc(N)c34)[nH]c12
Method in brief: as §1

lapatinib = compound: CS(=O)(=O)CCNCc1ccc(-c2ccc3ncnc(Nc4ccc(OCc5cccc(F)c5)c(Cl)c4)c3c2)o1 [lapatinib]
Method in brief: as §1

pictilisib = compound: CS(=O)(=O)N1CCN(Cc2cc3nc(-c4cccc5[nH]ncc45)nc(N4CCOCC4)c3s2)CC1 [pictilisib]
Method in brief: as §1

Measured: log2 fold change

SMAD4 (UniProt Q13485)
inactive: saracatinib 0.032 | sotrastaurin -0.012 | alvocidib -0.071 | Tubastatin A -0.01 | [1] 0.007 | defactinib -0.036 | rucaparib 0.044 | [2] -0.034 | encorafenib -0.001 | [3] 0.04 | [4] 0.06 | filanesib -0.004 | zotarolimus 0.003 | idasanutlin -0.064 | alisertib -0.029 | [5] 0.005 | gefitinib 0 | [6] 0.006 | lapatinib -0.003 | pictilisib 0.112

SMU1 (UniProt Q2TAY7)
inactive: saracatinib 0.068 | sotrastaurin 0.001 | alvocidib -0.019 | Tubastatin A -0.035 | [1] 0.022 | defactinib 0.042 | rucaparib 0.032 | [2] -0.045 | encorafenib 0.003 | [3] -0.034 | [4] 0.015 | filanesib 0.051 | zotarolimus 0.022 | idasanutlin -0.007 | alisertib -0.058 | [5] 0.004 | gefitinib -0.015 | [6] -0.027 | lapatinib 0.072 | pictilisib -0.004

SNCG (UniProt O76070)
inactive: saracatinib 0.025 | sotrastaurin 0.037 | alvocidib 0.002 | Tubastatin A -0.007 | [1] -0.075 | defactinib -0.007 | rucaparib -0.028 | [2] -0.043 | encorafenib -0.017 | [3] 0.041 | [4] -0.008 | filanesib -0.049 | zotarolimus -0.034 | idasanutlin -0.021 | alisertib -0.06 | [5] -0.037 | gefitinib -0.012 | [6] 0.022 | lapatinib 0.013 | pictilisib -0.006

SMG9 (UniProt Q9H0W8)
inactive: saracatinib -0.061 | sotrastaurin -0.029 | alvocidib 0 | Tubastatin A 0.1 | [1] -0.086 | defactinib -0.11 | [2] 0.059 | [3] -0.005 | [4] 0.019 | filanesib 0.034 | zotarolimus 0.063 | idasanutlin -0.014 | alisertib -0.236 | [5] 0.045 | [6] 0.273 | lapatinib -0.17 | pictilisib 0.008

SNX17 (UniProt Q15036)
inactive: saracatinib -0.015 | sotrastaurin 0.06 | alvocidib 0.064 | Tubastatin A -0.257 | [1] 0.005 | defactinib -0.195 | rucaparib 0.073 | [2] -0.037 | encorafenib 0.275 | [3] -0.03 | [4] 0.184 | filanesib 0.032 | zotarolimus -0.028 | idasanutlin 0.276 | [5] 0.122 | gefitinib -0.017 | lapatinib -0.116 | pictilisib 0.147

SMARCA1 (UniProt P28370)
inactive: saracatinib -0.056 | sotrastaurin -0.111 | alvocidib 0 | Tubastatin A 0.14 | [1] -0.083 | defactinib -0.098 | rucaparib 0.017 | [2] 0 | encorafenib 0.147 | [3] -0.053 | [4] -0.24 | filanesib 0.019 | zotarolimus 0.006 | idasanutlin -0.178 | alisertib 0.001 | [5] 0.118 | [6] -0.145 | lapatinib -0.06 | pictilisib -0.164

SNRPC (UniProt Q5TAL2)
inactive: saracatinib -0.023 | sotrastaurin -0.12 | alvocidib 0.079 | Tubastatin A 0.202 | [1] -0.143 | defactinib 0.034 | rucaparib -0.015 | [2] -0.01 | encorafenib -0.055 | [3] -0.015 | filanesib -0.048 | zotarolimus 0.027 | idasanutlin 0.086 | alisertib -0.122 | [5] 0.014 | gefitinib 0.007 | [6] -0.006 | lapatinib -0.118 | pictilisib 0.113

SLMAP (UniProt Q14BN4)
inactive: saracatinib -0.112 | sotrastaurin -0.078 | alvocidib 0 | Tubastatin A 0.13 | [1] -0.01 | defactinib -0.003 | rucaparib 0.112 | [2] 0.045 | encorafenib 0.028 | [3] -0.067 | [4] 0.056 | filanesib 0.137 | zotarolimus 0.043 | idasanutlin -0.005 | alisertib -0.022 | [5] 0.012 | gefitinib 0.051 | [6] -0.126 | lapatinib -0.004 | pictilisib 0.016

SMPD2 (UniProt O60906)
inactive: saracatinib -0.028 | sotrastaurin 0.035 | alvocidib -0.047 | Tubastatin A -0.028 | [1] -0.052 | defactinib -0.032 | rucaparib 0.016 | [2] -0.038 | encorafenib -0.018 | [3] 0.027 | [4] -0.123 | filanesib -0.052 | zotarolimus -0.035 | idasanutlin 0.001 | alisertib -0.008 | [5] -0.17 | gefitinib 0.064 | [6] 0.102 | lapatinib 0.052 | pictilisib -0.023

SMIM26, A0A096LP01
inactive: saracatinib 0.079 | sotrastaurin -0.086 | alvocidib 0.008 | Tubastatin A 0.005 | [1] -0.004 | defactinib -0.016 | rucaparib -0.251 | [2] -0.154 | encorafenib 0.109 | [3] 0.063 | [4] -0.073 | filanesib -0.098 | zotarolimus -0.092 | idasanutlin -0.109 | alisertib -0.084 | [5] 0.081 | gefitinib -0.017 | [6] 0.031 | lapatinib 0.134 | pictilisib -0.105

SP6 (UniProt Q3SY56)
inactive: saracatinib 0.046 | sotrastaurin 0.042 | alvocidib 0.049 | Tubastatin A 0.146 | [1] -0.11 | defactinib -0.121 | rucaparib 0.091 | [2] 0.073 | encorafenib -0.136 | [3] 0.14 | filanesib -0.089 | zotarolimus -0.054 | idasanutlin 0.098 | alisertib 0.101 | [5] 0.09 | gefitinib 0.037 | [6] 0.294 | lapatinib 0.119

SNAP91 (UniProt O60641)
inactive: saracatinib 0.092 | sotrastaurin -0.026 | alvocidib -0.012 | Tubastatin A -0.013 | [1] -0.025 | defactinib -0.03 | rucaparib -0.026 | [2] -0.026 | encorafenib 0.106 | [3] 0.073 | [4] 0.075 | filanesib -0.068 | zotarolimus -0.046 | idasanutlin -0.081 | alisertib -0.166 | gefitinib 0.013 | [6] 0.043 | pictilisib -0.07

Two consecutive records out of the list so far, for reference:
SMIM26, A0A096LP01
inactive: saracatinib 0.079 | sotrastaurin -0.086 | alvocidib 0.008 | Tubastatin A 0.005 | [1] -0.004 | defactinib -0.016 | rucaparib -0.251 | [2] -0.154 | encorafenib 0.109 | [3] 0.063 | [4] -0.073 | filanesib -0.098 | zotarolimus -0.092 | idasanutlin -0.109 | alisertib -0.084 | [5] 0.081 | gefitinib -0.017 | [6] 0.031 | lapatinib 0.134 | pictilisib -0.105

SP6 (UniProt Q3SY56)
inactive: saracatinib 0.046 | sotrastaurin 0.042 | alvocidib 0.049 | Tubastatin A 0.146 | [1] -0.11 | defactinib -0.121 | rucaparib 0.091 | [2] 0.073 | encorafenib -0.136 | [3] 0.14 | filanesib -0.089 | zotarolimus -0.054 | idasanutlin 0.098 | alisertib 0.101 | [5] 0.09 | gefitinib 0.037 | [6] 0.294 | lapatinib 0.119

Further entries follow:

SMYD2 (UniProt Q9NRG4)
inactive: saracatinib -0.162 | sotrastaurin -0.354 | alvocidib -0.013 | Tubastatin A 0.027 | [1] 0.015 | defactinib -0.13 | [2] 0.208 | [3] -0.316 | [4] -0.238 | filanesib 0.106 | zotarolimus -0.009 | idasanutlin -0.144 | alisertib 0.173 | [5] 0.022 | [6] -0.018 | lapatinib -0.066 | pictilisib 0.007

SNRPF (UniProt P62306)
inactive: saracatinib -0.024 | sotrastaurin -0.055 | alvocidib 0.107 | Tubastatin A -0.019 | [1] 0.003 | defactinib 0.122 | rucaparib 0.227 | [2] -0.075 | encorafenib 0.06 | [3] 0.085 | [4] 0.05 | filanesib 0.085 | zotarolimus -0.014 | idasanutlin 0.108 | alisertib -0.097 | [5] -0.167 | gefitinib -0.006 | [6] -0.111 | lapatinib 0.1 | pictilisib -0.093

SMYD5 (UniProt Q6GMV2)
inactive: saracatinib 0.018 | sotrastaurin -0.005 | alvocidib -0.044 | Tubastatin A -0.033 | [1] -0.005 | defactinib -0.038 | rucaparib -0.09 | [2] -0.061 | encorafenib -0.008 | [3] -0.021 | [4] -0.014 | filanesib -0.045 | zotarolimus 0.028 | idasanutlin -0.058 | alisertib -0.067 | [5] 0.032 | gefitinib -0.039 | [6] -0.008 | lapatinib -0.038 | pictilisib -0.009

SMIM1 (UniProt B2RUZ4)
inactive: saracatinib 0.032 | sotrastaurin -0.018 | alvocidib 0.087 | Tubastatin A -0.069 | [1] 0.046 | rucaparib -0.021 | [2] -0.1 | encorafenib 0.088 | [4] 0.115 | filanesib -0.073 | zotarolimus -0.049 | idasanutlin -0.111 | alisertib -0.021 | [5] -0.265 | gefitinib -0.149 | [6] 0.15 | lapatinib -0.049 | pictilisib 0.024

SOD1 (UniProt P00441)
inactive: saracatinib 0.031 | sotrastaurin 0.079 | alvocidib 0.01 | Tubastatin A 0.06 | [1] -0.002 | defactinib -0.001 | rucaparib -0.066 | [2] 0.047 | encorafenib 0.023 | [3] 0.024 | [4] -0.196 | filanesib -0.012 | zotarolimus 0.009 | idasanutlin 0.009 | alisertib 0 | [5] 0.015 | gefitinib -0.03 | [6] 0.127 | lapatinib -0.053 | pictilisib 0.088
